The source of these data is paper PMC3774174 (Nature biotechnology, 2013).

For the experiment, the system named is kinase collection (kinase–HSP90 interactions). The experiment is classed as cell-based, human. Conditions: 5 μM, 1 hour.

In the case of `CN[C@@H]1C[C@H]2O[C@@](C)([C@@H]1OC)n1c3ccccc3c3c4c(c5c6ccccc6n2c5c31)C(=O)NC4` [staurosporine], the “kinase–HSP90 interactions significantly reduced” value was found to be 45%.
